Data published in publication PMC11763476.
These are yes or no findings as the source states them, for the method shown. In cells and extracts the contact can be indirect. Some entries that bind do so weakly or less than the wild type. For some of these results: Tags and fused reporters may be left off the sequences shown.

The chains behind the UniProt entries cited, without tags or fusion partners.
UniProt P10275: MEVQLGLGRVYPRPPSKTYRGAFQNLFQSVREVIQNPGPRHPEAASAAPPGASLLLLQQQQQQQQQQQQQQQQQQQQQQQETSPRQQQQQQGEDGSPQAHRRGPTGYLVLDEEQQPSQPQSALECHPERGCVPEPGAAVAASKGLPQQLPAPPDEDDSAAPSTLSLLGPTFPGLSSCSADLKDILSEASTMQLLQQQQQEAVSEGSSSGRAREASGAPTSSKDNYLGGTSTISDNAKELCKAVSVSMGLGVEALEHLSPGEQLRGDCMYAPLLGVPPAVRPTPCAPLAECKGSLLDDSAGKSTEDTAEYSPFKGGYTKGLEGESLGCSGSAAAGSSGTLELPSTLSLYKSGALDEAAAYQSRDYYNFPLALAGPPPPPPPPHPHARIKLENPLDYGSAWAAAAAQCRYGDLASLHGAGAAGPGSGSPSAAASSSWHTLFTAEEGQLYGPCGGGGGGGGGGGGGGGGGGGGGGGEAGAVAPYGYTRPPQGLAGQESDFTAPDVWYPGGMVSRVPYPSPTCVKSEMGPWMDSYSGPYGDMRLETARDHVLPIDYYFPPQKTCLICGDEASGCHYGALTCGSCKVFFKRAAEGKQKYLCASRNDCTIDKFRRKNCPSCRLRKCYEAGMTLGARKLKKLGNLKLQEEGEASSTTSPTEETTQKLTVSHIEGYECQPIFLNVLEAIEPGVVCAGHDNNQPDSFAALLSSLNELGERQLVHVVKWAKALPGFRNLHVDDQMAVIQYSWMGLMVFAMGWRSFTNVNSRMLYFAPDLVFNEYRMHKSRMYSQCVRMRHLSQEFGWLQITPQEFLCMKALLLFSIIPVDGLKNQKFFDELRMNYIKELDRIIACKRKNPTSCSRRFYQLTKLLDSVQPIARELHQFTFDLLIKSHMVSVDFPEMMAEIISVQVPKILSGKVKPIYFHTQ

Experiments:
[1] = molecular target: T1, Forkhead box A1 (FOXA1), endogenous in prostate cancer cells (human (endogenous in LNCaP and CWR-R1)) (UniProt P55317); test: co-IP; endogenous proteins in sonicated lysates of LNCaP and CWR-R1 cells; immunoprecipitated on Protein G Dynabeads with anti-AR (PG-21), anti-FOXA1 or normal rabbit IgG; eluates analysed by Western blot
T1 sequence: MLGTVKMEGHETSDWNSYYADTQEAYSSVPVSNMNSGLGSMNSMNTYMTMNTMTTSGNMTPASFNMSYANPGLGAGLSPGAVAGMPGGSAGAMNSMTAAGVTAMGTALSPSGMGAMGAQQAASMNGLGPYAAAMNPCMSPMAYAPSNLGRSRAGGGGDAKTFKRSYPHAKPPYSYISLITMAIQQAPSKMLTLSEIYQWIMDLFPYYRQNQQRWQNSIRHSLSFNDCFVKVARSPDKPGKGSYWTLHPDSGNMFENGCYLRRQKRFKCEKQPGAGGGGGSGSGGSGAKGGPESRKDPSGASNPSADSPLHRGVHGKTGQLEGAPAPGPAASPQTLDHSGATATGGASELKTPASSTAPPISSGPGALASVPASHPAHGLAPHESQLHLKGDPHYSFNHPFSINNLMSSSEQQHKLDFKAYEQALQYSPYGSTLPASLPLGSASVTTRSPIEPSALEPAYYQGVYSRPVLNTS

[2] = molecular target: N-terminal tagged AR (NanoBiT construct) (UniProt P10275); test: split reporter; NanoBiT split luciferase; LgBiT- and SmBiT-tagged constructs (N- or C-terminal tags) co-transfected into HEK293 cells in 96-well plates, 100 ng plasmid per well; luminescence with background subtracted
[3] = molecular target: T2, N-terminal-tagged FOXA1 (NanoBiT construct) (UniProt P55317); test: as above
T2 sequence: T1 sequence

Question: How did the binding [1] turn out when “homeobox transcription factor NKX3.1, endogenous in prostate cancer cells (from UniProt Q99801 1-234)” was run?
Answer: Its binding is “binds”.

Question: What does the source list for “N-terminal-tagged NKX3.1 (NanoBiT construct) (from UniProt Q99801 1-234)”?
Answer: binding [2]: binds; binding [3]: binds

B1: N-terminal-tagged FOXA1 (NanoBiT construct) (protein, UniProt P55317 1-472)
chain: T1 sequence
Question: For B1, which binding [2] is on record?
Answer: The binding was “binds”.
